# Assay results as given in PubChem BioAssay AID2685 (National Center for Advancing Translational Sciences (NCATS), 2010).
# The list shows a part of the results. The main result of the screen is listed elsewhere. These columns were measured beside it and carry no call. Compounds called inactive in the main read-out are mostly missing here. Words in brackets tell the shape of the fitted curve; partial curves, single points and poor fits give uncertain potencies.
# Assay: qHTS Assay for Lipid Storage Modulators in Drosophila S3 Cells;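 for cell number change: cells counted by Cell Tracker Red CMTPX staining in the red channel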
# Details: BODIPY lipid droplet fluorescence, 18-24 h; for cell number change: measured here: cell count max response, cells fed with added oleic acid
# Procedure, shortened: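 Laser-scanning cytometry quantifies lipid droplet accumulation (500–530 nm total intensity; droplet/cell object ratio) in oleic acid-fed (400 uM added) Drosophila S3 cells treated with a concentration series. 20 uM Triacsin C defined 100% inhibition.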
# [1] = measured here: lipid fluorescence (Fed channel) AC50, cells fed with added oleic acid
# [2] = measured here: cell number channel AC50, cells fed with added oleic acid
Compound,cell number change [%],AC50 [1],AC50 [2]
C/C(=N\Nc1ccc(Cl)c(Cl)c1)c1ccc(-n2ccnc2)cc1,-4.31,"0.184 µM [rising, full curve, poor fit]",
COc1ccccc1CNC(=O)c1cc(C)nc2ccccc12,-10.5,,
Cc1ccc(C(C)C)cc1OCC(=O)NC1CCCCCCC1,-51.2,"29.1 µM [falling, single point]","18.4 µM [falling, single point]"
O=C(CCC(=O)Nc1ccc(F)cc1)N/N=C/c1cccnc1,,"0.708 µM [rising, full curve]",
COc1cc(CC(NC(C)=O)C(=O)NC2CCN(C(=O)Nc3ccccc3C)CC2)cc(OC)c1 (stereo not drawn),-3.85,,
Cc1ccccc1C(=O)c1cccn1CC(=O)NCc1cccc(Cl)c1,,"0.58 µM [rising, single point]",
COc1cccc(CN(Cc2ccco2)S(=O)(=O)c2ccc(S(=O)(=O)NCc3ccccc3)cc2)c1OC,-7.41,"29.1 µM [falling, single point]",
CCc1nn(CCCC(=O)NC(C)c2ccccc2)c(=O)c2cc3occc3n12 (stereo not drawn),1.15,"6.51 µM [rising, single point]",
OC(CNCc1ccc(F)cc1)(c1ccccc1)c1ccc(F)cc1 (stereo not drawn),22.4,,"0.326 µM [rising, full curve]"
Cc1nccn1CCOc1ccc(Cl)cc1,5.57,"29.1 µM [rising, single point]",
C#CCSc1nnc(CSc2nc3ccccc3s2)n1-c1ccccc1,19.6,,"1.46 µM [rising, partial curve, poor fit]"
O=C(NC1CC2CCCC(C1)N2C(=O)NCc1ccccc1)C1CC1 (stereo not drawn),0.537,,
CCc1n[nH]c(=O)n1Cn1c(CC)n[nH]c1=O,-91.5,,"29.1 µM [falling, single point]"
CC(Oc1ccccc1)C(=O)N(CCC1=CCCCC1)c1c(N)n(Cc2ccccc2)c(=O)[nH]c1=O (stereo not drawn),-13.6,"29.1 µM [falling, single point]",
Nc1c(C(=O)NCc2ccco2)nnn1CC(=O)Nc1ccccc1,3.91,,
CC1(C)N=C(C(=O)c2ccccc2)N(O)C1(C)O (stereo not drawn),-12.4,"0.116 µM [rising, full curve, poor fit]",
COc1ccc(CN(C)C(=O)Cc2ccsc2)c(OC)c1OC,3.85,"5.17 µM [falling, single point]",
O=C(CN1C(=O)c2cccc3cccc1c23)NCc1ccc2c(c1)OCO2,,"23.1 µM [falling, single point]",
Cc1cc([N+](=O)[O-])ccc1NC(=O)c1ccc(NC(=O)C(C)C)cc1,-42.1,,
O=C(NC(=S)Nc1ccccc1Cl)c1cncc(C#Cc2ccccc2)c1,3.07,"1.84 µM [rising, partial curve, poor fit]",

Compound,cell number change [%],AC50 [1],AC50 [2]
Cc1ccc(O)c(C(=O)c2cc(C(=O)NCCc3ccccc3)c(=O)n(CCc3ccccc3)c2)c1,0.403,"0.461 µM [rising, partial curve]",
O=C(NCC(=O)N1CCCCCCC1)c1ccc(Cl)cc1,-23.6,"5.17 µM [falling, partial curve]",
COc1cc(SC)ccc1C(=O)N1CC(C)OC(C)C1 (stereo not drawn),4.21,"18.4 µM [falling, single point]",
O=c1[nH]c2ccccc2nc1NCCN1CCOCC1,40.3,,"11.6 µM [rising, single point]"
COc1ccc(C(=O)Nc2ccc(NC(=O)Cc3ccccc3)cn2)cc1,21.6,"4.11 µM [rising, full curve]",
CC(C)c1ccc(S(=O)(=O)N2CCN(CC(=O)c3ccc(O)c(O)c3)CC2)cc1,20.3,"5.17 µM [rising, partial curve]",
CCCOC(=S)Nc1ccccc1,-1.75,,"0.0651 µM [rising, full curve]"
Cc1ccc(-c2cc(Cc3ccccn3)c(=O)[nH]n2)cc1,30.7,"1.64 µM [rising, partial curve, poor fit]","4.11 µM [rising, partial curve, poor fit]"
O=C(NCC1CCCCC1)C1CCN(C(=O)NC2CCCCC2)CC1,-3.62,"0.82 µM [falling, full curve]",
COc1cc(NS(=O)(=O)c2ccc3ccccc3c2)c2ncccc2c1,-20,,
CC(C)(C)c1cc(CCC(=O)NNC(=S)NC(=O)c2ccccc2)cc(C(C)(C)C)c1O,-51.7,"29.1 µM [falling, single point]","32.6 µM [falling, single point]"
CCOC(=O)C1=C(C)N(C)C(=S)NC1c1ccc(Cl)cc1 (stereo not drawn),-26.3,"29.1 µM [falling, single point]",
Cc1csc(NC(=O)CSc2nnc(CCNC(=O)c3ccc(Cl)c(Cl)c3)n2C)n1,54.9,,"4.61 µM [rising, full curve, poor fit]"
COc1cc(F)c(C2=CC(=O)C[C@H](c3ccc(F)cc3)C2)cc1F,,"0.58 µM [falling, partial curve]",
CC(=O)c1c(C)[nH]c(C(=O)NC2CCCCC2)c1C,,"29.1 µM [rising, single point]",
O=C(COC(=O)CCNS(=O)(=O)c1cccs1)Nc1ccccc1,7.73,"4.11 µM [rising, partial curve]",
O=C1CN(C(=O)c2cccc([N+](=O)[O-])c2)CC(=O)N1,5.84,"29.1 µM [rising, single point]",
c1cnc2ccc(C(c3nnnn3C3CCCC3)N3CCN(c4nc5ccccc5s4)CC3)cc2c1 (stereo not drawn),-4.42,"3.26 µM [rising, partial curve]",
COc1ccc2c(c1)C1(Nc3ccccc3C(=O)N1c1ccccc1)C(=O)N2 (stereo not drawn),-17.6,,"5.17 µM [falling, partial curve, poor fit]"
Nc1nc(COC(=O)C2CCN(C(=O)c3ccc(Cl)cc3)CC2)nc(Nc2ccccc2)n1,39.9,"32.6 µM [rising, single point]","32.6 µM [rising, single point]"

# A different layout for part of the listing above.
Compound	cell number change [%]	AC50 [1]	AC50 [2]
CC(Oc1ccccc1)C(=O)N(CCC1=CCCCC1)c1c(N)n(Cc2ccccc2)c(=O)[nH]c1=O (stereo not drawn)	-13.6	29.1 µM [falling, single point]	
O=C(NC(=S)Nc1ccccc1Cl)c1cncc(C#Cc2ccccc2)c1	3.07	1.84 µM [rising, partial curve, poor fit]	
